## Primary screen of a compound library

Source: ChEMBL document CHEMBL3988442, “University of Dundee, Small-Polar-MMV Screening Library” (2021).

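Phenotypic screen: M. tuberculosis growth, cholesterol and DPPC medium, 4 days; the read-out is not stated. Concentration: 50 µM. The record gives no direction; compounds that gave an IC50 in retests scored well above the rest, so higher reads as more growth inhibition. Of about 69,000 compounds tested this way, about 370 (0.54%) reached 50% or more in at least one test.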

The filed quantity is “Percent Effect” (%).
The record does not define 0% and 100%; most values in the screen are far below 50% and negative numbers occur (in some assays of this library far below -100).
Compounds were drawn at random from those tested, without regard to their results.
Two or more numbers in one place are separate tests of the same structure; such repeats can differ widely.

SMILES: Cc1cc2c(N3CCC(N(C)Cc4nccs4)CC3)ncnc2s1
Percent Effect: 4.168%

SMILES: CN1CC(Oc2ccccc2)=NC(SCC(=O)Nc2ccccc2Cl)=N1
Percent Effect: -13.15%

SMILES: c1ccc(-c2cnc(CNC3CCc4ncnn4C3)o2)cc1 (stereo unspecified)
Percent Effect: -26.99%

SMILES: Cn1ccnc1CN1CCOC(Cn2cccn2)C1 (stereo unspecified)
Percent Effect: -18.39%

SMILES: Cn1cnnc1C1CCCN1C(=O)Nc1cccc(OC(F)F)c1 (stereo unspecified)
Percent Effect: 3.384%

SMILES: COCCNC(=O)Cn1cc(OCc2ccccc2F)c(=O)cc1CO
Percent Effect: -76%

SMILES: CC(C)c1ncc(CN2CCCC(CO)C2)cn1 (stereo unspecified)
Percent Effect: -5.167%

SMILES: CCOCC1CCN(C(=O)Nc2ccc(-c3csnn3)cc2)C1 (stereo unspecified)
Percent Effect: -2.126%

SMILES: CCn1ncc(CN2CCCC(C(=O)c3ccc(Cl)cc3)C2)c1C (stereo unspecified)
Percent Effect: 29.89%

SMILES: COc1ccc(C)cc1C(C)NCc1cccn1C (stereo unspecified)
Percent Effect: -4.106%

SMILES: O=C(O)C(F)(F)F.O=C(O)C(F)(F)F.O=C(O)C(F)(F)F.[H][C@@]12CCN(Cc3nccn3C)C[C@]1([H])[C@@H](CNc1ncccn1)OC2
Percent Effect: -30.89%

SMILES: CCN1CCN(C(=O)c2cccn2Cc2ccccc2)CC1
Percent Effect: -12.95%

SMILES: CC(C)(CNC(=O)c1ccco1)CNC(=O)c1ccco1
Percent Effect: 0.8122%

SMILES: O=S(=O)(C1CC1)N1CCC2(CC1)COC(COc1cccnc1)C2 (stereo unspecified)
Percent Effect: 4.086%

SMILES: Cc1nc(CN(C)S(=O)(=O)c2ccccc2Br)no1
Percent Effect: -4.108%

SMILES: Cc1noc(C)c1CN(C)CC(c1cccs1)N1CCOCC1 (stereo unspecified)
Percent Effect: -6.161%

SMILES: Cc1cc(CS(=O)(=O)NCC2CCCCC2)on1
Percent Effect: 1.375%

SMILES: Cc1cnc(C(=O)NCc2ccnc(N(C)C)c2)cn1
Percent Effect: -11.01%

SMILES: CCc1nc(C)sc1CN1CC[C@@](O)(C2CC2)[C@H](C)C1
Percent Effect: 3.006%

SMILES: Cc1cc(C(=O)NC(C)c2nnn[nH]2)c2ccc(C)c(C)c2n1 (stereo unspecified)
Percent Effect: -70.72%

SMILES: CC(C)c1ncncc1C(=O)NCCN1CCCS1(=O)=O
Percent Effect: 14.6%

SMILES: O=C(NCCNC1CCCCC1)c1cccs1
Percent Effect: 0.1657%

SMILES: CCN(CC)C(=O)CCNC(=O)Cc1nc(-c2ccco2)oc1C
Percent Effect: -23.74%

SMILES: CCNC(=O)NC1CN(Cc2ccncc2Cl)C[C@@H]1OC (stereo partly specified)
Percent Effect: 18.83%

SMILES: CN(CCO)Cc1nnc(C2CCN(C(=O)c3ccccc3)CC2)n1C
Percent Effect: -1.942% & 1.883%

SMILES: COCCc1noc(CN(C)C2CCCN(c3ccc(C)nn3)C2)n1 (stereo unspecified)
Percent Effect: -2.295%

SMILES: COCCC(=O)N1CCN(C)c2ncccc2C1
Percent Effect: -35.03%

SMILES: CC(C)c1nnc(CN2CCCC2C(=O)OCc2ccccc2)o1 (stereo unspecified)
Percent Effect: -10.5%

SMILES: CC1=NOC(C(=O)N2CCC(O)(c3ccc4nc(C)ccc4c3)CC2)C1 (stereo unspecified)
Percent Effect: -34.73%

SMILES: CC(=O)N1CCn2c(-c3cccc(F)c3)cnc2C12CCNCC2.O=C(O)C(F)(F)F
Percent Effect: 4.815%

SMILES: CC1CCN(c2nc3c(cnn3-c3ccccc3)c(=O)[nH]2)CC1
Percent Effect: -48.95% & 4.217%

SMILES: COc1ccc(OC)c2c(C)cc(N(C)CCCO)nc12
Percent Effect: 22.63%

SMILES: CC1CCN(C(=O)C(C)N2CCN(c3nccs3)CC2)CC1 (stereo unspecified)
Percent Effect: -21.96%

SMILES: N#Cc1cccc(NC(=O)CCn2nc(-c3cccs3)oc2=O)c1
Percent Effect: 4.767%

SMILES: O=C(Nc1ccc(CCN2CCC(O)CC2)cc1)C1CCOCC1
Percent Effect: -5.803%

SMILES: CC(c1ccccc1Cl)N(C)Cc1nc2c(cnn2C)c(=O)[nH]1 (stereo unspecified)
Percent Effect: -4.09%

SMILES: O=C(Nc1ccc(N2CCCC2)nc1)N1CCc2sccc2C1
Percent Effect: -13.02% & -11.07%

SMILES: CCCC1(CO)CCCN(C(=O)CCCn2nc(C)cc2C)C1 (stereo unspecified)
Percent Effect: -7.886%

4 of the entries, repeated:

* CC1CCN(c2nc3c(cnn3-c3ccccc3)c(=O)[nH]2)CC1 | -48.95% & 4.217%
* CN(CCO)Cc1nnc(C2CCN(C(=O)c3ccccc3)CC2)n1C | -1.942% & 1.883%
* CC(C)c1nnc(CN2CCCC2C(=O)OCc2ccccc2)o1 (stereo unspecified) | -10.5%
* CC1CCN(C(=O)C(C)N2CCN(c3nccs3)CC2)CC1 (stereo unspecified) | -21.96%